Consider 4 substances from patent US20150299764A1, “IMMOBILISED CYCLIN-DEPENDENT KINASE 4 FUSION PROTEINS AND USES THEREOF” (UNIVERSITE LIBRE DE BRUXELLES, priority 2012, published 2015).

Chains of the proteins cited; added tags and fusions are not shown. Residues count along the entry.
UniProt P11802, residues 2-303: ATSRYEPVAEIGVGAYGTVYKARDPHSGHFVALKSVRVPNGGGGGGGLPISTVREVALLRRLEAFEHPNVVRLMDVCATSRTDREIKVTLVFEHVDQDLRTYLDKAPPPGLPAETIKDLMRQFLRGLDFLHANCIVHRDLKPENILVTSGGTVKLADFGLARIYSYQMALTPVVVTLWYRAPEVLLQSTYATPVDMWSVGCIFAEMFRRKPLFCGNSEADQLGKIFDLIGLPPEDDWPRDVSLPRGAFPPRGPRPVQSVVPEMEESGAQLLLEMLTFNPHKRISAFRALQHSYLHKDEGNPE
UniProt P24385: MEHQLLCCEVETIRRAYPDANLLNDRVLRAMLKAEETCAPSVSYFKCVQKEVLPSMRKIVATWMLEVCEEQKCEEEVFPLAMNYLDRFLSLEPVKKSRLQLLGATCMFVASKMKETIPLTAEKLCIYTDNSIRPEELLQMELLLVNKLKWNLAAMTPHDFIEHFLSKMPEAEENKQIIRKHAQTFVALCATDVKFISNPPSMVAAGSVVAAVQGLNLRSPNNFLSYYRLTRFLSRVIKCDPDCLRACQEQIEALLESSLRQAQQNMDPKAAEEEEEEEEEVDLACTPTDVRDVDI
UniProt P30281: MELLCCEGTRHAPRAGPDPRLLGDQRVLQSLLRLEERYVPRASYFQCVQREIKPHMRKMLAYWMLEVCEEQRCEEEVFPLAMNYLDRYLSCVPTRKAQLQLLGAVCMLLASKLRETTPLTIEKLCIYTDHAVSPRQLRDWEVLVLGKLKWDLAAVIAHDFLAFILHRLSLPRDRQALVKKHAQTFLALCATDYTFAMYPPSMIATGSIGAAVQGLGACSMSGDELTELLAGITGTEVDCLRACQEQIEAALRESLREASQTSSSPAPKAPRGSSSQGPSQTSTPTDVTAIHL
UniProt P02701, residues 25-152: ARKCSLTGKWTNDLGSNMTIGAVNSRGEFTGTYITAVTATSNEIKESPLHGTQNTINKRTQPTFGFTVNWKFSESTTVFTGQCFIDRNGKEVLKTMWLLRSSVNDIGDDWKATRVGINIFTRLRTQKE

Assay [1] concerns the target endogenous CDK4 of MCF7 cells (human) (UniProt P11802). As to the kind of experiment: co-immunoprecipitation from MCF7 lysate with anti-cyclin D1 (DCS-11), 2D gel immunoblot with anti-CDK4 H-22. Background: In western blotting, separated proteins are transferred to a membrane and probed.
Assay [2] shares this target. Put plainly: co-immunoprecipitation from MCF7 lysate with anti-cyclin D3 (DCS-28), 2D gel immunoblot with anti-CDK4 H-22.
Assay [3] addresses internally Avi-tagged biotinylable luciferase/Avi/GFP fusion (ATGHis_Luc, from pWNATGHis_Luc) [luciferase: P08659]. Put plainly: blot of HEK293T lysates probed with labelled streptavidin (Odyssey).
The target in assay [4] is internally Avi-tagged biotinylable luciferase/Avi fusion without GFP (ATHis_Luc, from pWNATHis_Luc) [luciferase: P08659]. The assay is described as above.
The target of assay [5] is biotinylated Avi-tagged cyclin D1 (from pWFAvi_IBc_D1 or pWFAvi_IBp_D1). Put plainly: blot of HEK293T lysates probed with streptavidin-HRP.
For assay [6], the target named is biotinylated Avi-tagged luciferase/EGFP fusion (pWFAvi_IBc_luc) [luciferase: P08659]. As to the kind of experiment: dilution series of HEK293T lysate on Pierce neutravidin-coated plates, bound luciferase activity.

These are yes or no findings as the source states them, for the method shown. For part of these data: Binding seen in cells or lysates may run through a third protein. Some results given as binding are weak or reduced against the parent protein; the word gives no strength.

Turning to “endogenous cyclin D1 of MCF7 cells (from UniProt P24385 1-295)”, the binding entry in assay [1] is listed as “binds”.

For the substance “endogenous cyclin D3 of MCF7 cells (from UniProt P30281 1-292)”, the binding result in assay [2] is recorded as “binds”.

“streptavidin (from UniProt P22629 37-163)”: the binding result in assay [3], in assay [4] and in assay [5] was “binds” in each case.

“neutravidin (from UniProt P02701 25-152)”: the binding entry in assay [6] was “binds”.
